Laboratory results: PubChem BioAssay AID504375 (National Center for Advancing Translational Sciences (NCATS), 2011)
Hit rate of the full screen: of about 1,600 compounds, about 25 (2%) were called active. About 7% were inconclusive and are not listed. The call rests on the fitted dose curve; in most records, active means well fitted inhibition curve with a large enough effect; inconclusive means small, poorly fitted or top-dose-only effect, or effect the other way; inactive means no such curve, though single readings can be large or run the other way. The list shows a part of the results.

Sequences of proteins named here, by UniProt entry; tags and fusion partners are left off.
UniProt Q01196, whole entry, looked up: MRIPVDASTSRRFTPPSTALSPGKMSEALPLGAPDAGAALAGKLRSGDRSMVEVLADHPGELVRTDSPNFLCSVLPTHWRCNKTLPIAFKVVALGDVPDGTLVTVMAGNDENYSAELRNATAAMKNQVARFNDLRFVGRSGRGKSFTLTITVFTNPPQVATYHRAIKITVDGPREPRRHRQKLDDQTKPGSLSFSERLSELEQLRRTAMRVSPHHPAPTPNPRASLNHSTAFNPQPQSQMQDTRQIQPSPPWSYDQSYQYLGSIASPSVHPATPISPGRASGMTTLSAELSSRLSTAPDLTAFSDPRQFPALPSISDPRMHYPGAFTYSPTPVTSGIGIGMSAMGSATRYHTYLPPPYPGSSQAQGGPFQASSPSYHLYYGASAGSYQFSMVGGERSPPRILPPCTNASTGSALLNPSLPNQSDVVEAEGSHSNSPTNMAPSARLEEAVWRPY
UniProt Q13951, whole entry, looked up: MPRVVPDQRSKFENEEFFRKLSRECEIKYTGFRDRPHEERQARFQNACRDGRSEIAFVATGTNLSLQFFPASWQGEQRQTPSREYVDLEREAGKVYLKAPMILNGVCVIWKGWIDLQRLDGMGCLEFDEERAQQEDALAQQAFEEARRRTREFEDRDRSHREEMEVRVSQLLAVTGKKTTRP

What follows are compounds tested against Runt-related transcription factor 1 (Homo sapiens) + Core-binding factor subunit beta (Homo sapiens) (UniProt Q01196+Q13951) (assay: qHTS Assay for Compounds Blocking the Interaction Between CBF-beta and RUNX1 for the Treatment of Acute Myeloid Leukemia: Hit Validation with Orthogonal Assay). Conditions: CBFbeta-RUNX1 binding orthogonal assay, biochemical; series mostly up to 41 µM; activity change, negative = inhibition: at the top concentration.
In short: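 Compound was incubated for 30 min with biotin-RUNX1 plus His6-CBF-beta at 30 nM per protein. Binding was then detected by TR-FRET between terbium anti-His antibody and 5 nM streptavidin-XL665, read after 90 min, in the same buffer as the AlphaScreen primary assay.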
On the % scale 0 is the no-effect control and ±100 the full control effect.

Activity change, negative = inhibition, inactive:
CC(C)OP(=O)(c1ccc(N(C)C)cc1)C(O)c1cccnc1 (centres undefined) 1.41%, CSCCC(NS(=O)(=O)/C=C/c1ccccc1)C(=O)NCCc1ccc(S(N)(=O)=O)cc1 (centres undefined) 4.05%, NC1=NC(=Nc2ccc(S(N)(=O)=O)cc2)c2ccccc21 6.34%, CCCOc1ccc(C(=O)c2ccccc2C(=O)O)cc1OCCC 1.6%, CCN1CCN(S(=O)(=O)c2cc(C(=O)O)ccc2Cl)CC1 -5.48%, O=C(O)CCC(=O)N1CCN(c2ncccn2)CC1 -8.75%, COc1ccc(/C=N/NC(=S)Nc2cc(C(F)(F)F)ccc2Cl)cc1 3.19%, Cc1cc(C)[n+]2[nH]c(N)c(N=Nc3ccccc3)c2n1 9.93%, CCCNc1cc(=S)nc(N)[nH]1 -4.33%, CC(/C=N/NC(=O)c1cc(-c2cccn2C)n[nH]1)=C\c1ccccc1 -6.57%, CC(=O)Nc1ccc(NS(=O)(=O)c2ccc(C)cc2)cc1[N+](=O)[O-] 31.5%, CC1c2ccsc2CCN1S(=O)(=O)c1cccs1 (centres undefined) -8.33%, OCc1ncc(-c2ccccc2)s1 -10.5%, CC(=O)Cc1nnn(-c2cc(C)on2)n1 0.306%, O=C(CSc1ccc(-c2ccccn2)nn1)NCc1ccccc1 -3.74% [at 82.4 µM], Cc1c(Cl)ccc2c(C(=O)O)cc(-c3ccccc3)nc12 -3.82%, COc1ccc(/C=N/NC(=O)Cn2ccnc2C)cc1OC -3.54%, Cc1nn(C)c(Sc2ccccn2)c1[N+](=O)[O-] 17.8%, CCOc1ccc(Nc2nc(N)nc(CCl)n2)cc1 -7.88%, FC(F)(F)c1cccc(-n2c(Cn3nnc4ccccc43)n[nH]c2=S)c1 -16.8%, Cc1ccc(S(=O)(=O)NC(=O)Nc2ccc(OC(F)F)cc2)cc1 9.37%, COc1ccc(/C=N/NC(=O)c2ccc(Br)cc2)cc1CN1CCOCC1 15.4%, O=S(=O)(c1ccc(Cl)cc1)N1CCCN(c2ccc(C(F)(F)F)cn2)CC1 -10.5%, Cc1cc(C)n2cnnc2n1 10.9%, C/C(=N\Nc1ccc(C#N)cc1[N+](=O)[O-])c1ccc(O)cc1 16.9%, O=[N+]([O-])c1c(C(Cl)Cl)nn(-c2ccccc2)c1N1CCCC1 0.555% [at 22.1 µM], Clc1ccccc1-c1nnc2n1CCCCC2 -6.94%, COC(=O)c1ccc(/C=N/NC(=O)C(=O)NCC2CCCO2)cc1 (centres undefined) 1.71%, COC(=O)[C@H](CC(C)C)NC(=O)N1CCCCC1C (some centres undefined) -1.26%, Oc1ccc(NC(=S)Nc2ccccc2)cc1 10.7%, COc1ccc(-c2c(NC(=O)c3ccco3)n(-c3ccccc3)nc(C)c2=O)cc1 16.9%, NNC(=O)c1ccc(COc2ccc([N+](=O)[O-])cc2)o1 21.3%, CC(=O)c1ccc(-n2ccnc2)cc1 -0.967%, CC(C)c1ccc(Nc2c([N+](=O)[O-])c(=O)n(C)c3ccccc23)cc1 37.9%, CCOC(=O)/C(=N/Nc1ccc(OC)cc1)N1CCCc2ccccc21 -4.32%, CCCCCc1ccc(S(=O)(=O)Nc2cc(C)ccn2)cc1 -8.73%, CC(=O)c1ccc(N2CCc3ccccc3C2)c([N+](=O)[O-])c1 32.5%, Cc1cc(=O)oc(C)c1C(=O)Nc1ccccc1F -5.73%, Cc1cc(C)cc(NC(=O)NCC(O)COc2ccc([N+](=O)[O-])cc2)c1 (centres undefined) 7.89%, Cc1onc(-c2c(F)cccc2Cl)c1C(=O)N=C(N)N1CC(C)OC(C)C1 (centres undefined) 4.75%, CN(C)/C=C(/C(=O)c1ccc(Cl)c(Cl)c1)c1nnnn1-c1ccccc1 -20.4%, Nc1ccccc1C(=O)NNC1=C(C(=O)C(F)(F)F)CCC1 -7.41%, CCOC(=O)Cc1csc(NC(=O)Cc2ccc(Br)cc2)n1 -7.4%, N/C(Cc1nc2ccccc2s1)=N\O 12.3%, Cc1c(-c2ccccc2)[n+](=O)c(-c2ccc(Br)cc2)c(C)n1[O-] 26.5%, COc1cc(NC(=S)N(C)C)c(OC)cc1Cl 6.15%, CC1=C(C(=O)c2ccccc2)C(c2ccc(O)cc2)NC(=S)N1 (centres undefined) 0.624%, Clc1cc(Cl)cc(Nc2ncnc(-n3cccc3)n2)c1 -2.8%, O=C(CCCCCCCCCCC(=O)NCc1cccnc1)NCc1cccnc1 1.7%, C1=Cc2ccccc2Nc2ccccc21 15.4%, CC(=O)NCC1(O)CCCC(C)C1 (centres undefined) 6.06%, CSc1ccc2c(c1)C(N1CCN(C)CC1)Cc1ccccc1S2 (centres undefined) -1.54%, O=C(Nc1ccc(F)cc1)C(=O)c1c(O)[nH]c2ccc([N+](=O)[O-])cc12 11.1%, CC1=[N+](C)N(c2ccccc2)C(=O)C1N=C/C=C/c1ccccc1 (centres undefined) -2.94%, O=C(c1ccccc1Cl)N1CCSCC1 -5.33%, Cc1csc2c(N3CCC(C(=O)O)CC3)ncnc12 0.416%, CCOC(=O)c1c[nH]n2c(=O)cc(C)nc12 5.6%, C=COC(=O)c1sc2nc(C)cc(C)c2c1N 29.3%, Cc1onc(-c2ccccc2)c1NC(=O)N(Cc1ccccc1)C(C)C -14.8%, O=C(CN1CCCC1)OCCCC1CCCCC1 -5.66%, COC(=O)c1sccc1NC(=O)CC1C(=O)NCCN1C(=O)c1ccc(F)cc1 (centres undefined) 9.57%, COc1ccc(C(O)Cn2cc([N+](=O)[O-])nc2C)cc1 (centres undefined) 13.5%, Cc1ccc(C2N=C(N)Nc3nc(=O)c4ccccc4n32)cc1 (centres undefined) -20.6%, C=CCn1c(=O)c2ccccc2n2nnc(C(=O)OCC)c12 8.09%, O=C(O)c1ccc(N/N=C/C2=C(N3CCOCC3)C(=C\c3ccccc3)/CC2)cc1 -23.6%, COc1ccc(CCNC(=S)N(C)C)cc1OC 4.11%, NC(=O)C1CCN(C(=O)Nc2csc3ccccc23)CC1 2.19%, COc1cccc(NC(=O)C2CC(=O)N/C(=N/NC(=O)c3ccc(C)cc3)S2)c1 (centres undefined) 15.3%, COc1ccc(/C(C#N)=C/c2ccccn2)cc1 15.8%, CCc1nc2oc3ccccc3c(=O)c2c(=O)n1-c1ccc(C)cc1 -12.6%, CC(C)(C)OC(=O)N1CCCN(C(=O)Nc2ccc(C(F)(F)F)cc2)CC1 9.91%, CCOC(=O)Nc1ccc(C(=O)/C=C/c2ccccc2)cc1 -2.59%, CC(C)CC(=O)N=C1SC2CS(=O)(=O)CC2N1Cc1ccccc1Cl (centres undefined) 11.2%, Cn1c(N)c(C(=O)Nc2ccc(-c3ccccc3)cc2)sc1=S -9.4%, Cc1cc2nc(-c3ccccc3)cc(=O)n2[nH]1 -13.2%, CCn1c(NC(=O)C(C)C)c(-c2cccs2)c(=O)c2ccccc21 -18.4%, Fc1ccc(C2=Nn3c(nnc3-c3ccco3)SC2)cc1 9.71%, Cc1ccc(S(=O)(=O)NNC(=O)c2cc(C)cs2)cc1 8.56%, Clc1ccc(Nc2ncnc3c2nnn3Cc2ccccc2)cc1 2.04%, CCOc1ccc(Nc2c3ccccc3nc3ccccc23)cc1 11.1%, CC1=NN(c2nc3ccccc3[nH]2)C(=O)C1Cc1ccccc1 (centres undefined) 9.77%, O=C(CSc1nc2cc(Cl)c(Cl)cc2[nH]1)c1ccc2c(c1)OCO2 -10%, CC(C)(C)SCCNS(=O)(=O)c1ccc(C#N)cc1 12.4%, O=[N+]([O-])c1cccnc1Oc1cccnc1 32.5%, OC[C@H](O)[C@H](O)[C@@H](O)[C@@H](O)[C@@H]1SC(c2ccccc2)=NN1c1ccccc1 11%, CCN(CC)CC(O)Cn1c(-c2cccc(Cl)c2)nc2cc(C)c(C)cc21 (centres undefined) 1.63%, C=CCOc1c(CCC)cc(CCC)cc1C(N)=O 10.7%, COc1nc(C)ccc1-c1noc(-c2cccs2)n1 -3.73%, CCOC(=O)c1nn(-c2ccc([N+](=O)[O-])cc2)cc1O 64.7%, O=C1NCCc2c1[nH]c1ccccc21 -12%, CCOC(=O)c1ccc(N2CCCCC2)c(NS(=O)(=O)c2ccc(C)cc2)c1 10.9%, Fc1c(CSC(=S)N2CCOCC2)cccc1CSC(=S)N1CCOCC1 8.61%, COc1ccc(Oc2ccc(-c3ccn[nH]3)cc2)cc1 -5.37%, O=S(=O)(Nc1cccc(CCc2ccccn2)c1)c1ccc(Cl)cc1 1.84%, O=C(N/N=C/c1ccc2c(c1)OCCO2)c1ccncc1 12.8%, CN(C)C=Nc1ccc(Cl)c(Cl)c1 6.66%, CCOC(=O)c1nnn2c1nc(N1CCCCC1)c1ccccc12 -6.21%, CCCCC1CCCC12NC(=O)NC2=O (centres undefined) -8.01%, Nc1ncccc1OCc1ccc(Cl)c(Cl)c1 6.83%, Clc1ccccc1/C=C/c1nc(-c2ccccn2)no1 19.8%, CCCCNC(=O)Nc1ncn[nH]1 -0.856%, COc1ccc(/C=N/OC(=O)c2ccc(Cl)cc2)c(Cl)c1OC -9.47%, CCN1C(=O)[C@@H]2C(C(=O)c3cnccn3)=NN[C@@H]2C1=O 6.63%, C/C(=N\Nc1ccc(Cl)c(C(=O)O)c1)c1cccs1 6.61%, Cc1cccc(OCC(=O)N(Cc2ccc(N(C)C)cc2)C2CCS(=O)(=O)C2)c1 (centres undefined) 1.09%, N#Cc1cc(-c2ccccc2)[nH]c1-c1nccc2ccccc12 7.47%, CCn1c(O)c(C=NCc2ccccc2)sc1=S 18.3%, Cc1cc(OCC(=O)c2ccc(C(F)(F)F)cc2)n2cnnc2n1 4.58%, C/C(=N\NC(=O)c1cc(-c2cccc([N+](=O)[O-])c2)n[nH]1)c1ccc(F)cc1 24.3%, O=C(c1ccc(Cn2ccc([N+](=O)[O-])n2)cc1)N1CCN(Cc2ccccc2)CC1 19.1%, Cc1ccccc1CSc1nnc([C@@H]2CCCN2)o1 -22.8%, CC(C)CC(=O)NC(=S)Nc1ccc(N2CCCC2)c(Cl)c1 2.43%, CC1CC2OC(=O)C3(C)CCCC(C)(C23)C1(O)CCc1ccoc1 (centres undefined) -2.79%, COc1ccc([N+](=O)[O-])cc1NC(=O)N(C)Cc1ccco1 26.4%, CC(=O)Nc1nc(C)c(-c2csc(Nc3ccc(S(N)(=O)=O)cc3)n2)s1 -8.18%, O=C(N/N=C/c1ccc2nccnc2c1)c1ccncc1 56.7%, Nn1c(SCc2cccc(F)c2)nnc1-c1cccnc1 1.79%, COCCn1c(-c2ccc(Cl)cc2)nc2oc3cc(OC)ccc3c(=O)c2c1=O 10.5%, O=C(CNCc1ccco1)Nc1cccc(S(=O)(=O)N2CCCCC2)c1 12.1%
